Laboratory results from patent US20260364175A1, “COMPOSITIONS FOR DRUG ADMINISTRATION” (Aegis Therapeutics, LLC, priority 2018, published 2026).

Tests used:
[1] = oral doses; cited from earlier work
[2] = fast-dispersing tablets 50 mg with 1% to 2% alkylsaccharide

- first-pass metabolism [2]: less first-pass metabolism
Compound: CN(C)CCOC(c1ccccc1)c1ccccc1 [Diphenhydramine]
- time to peak plasma concentrations [1]: 1 to 4 h
